Reference: patent publication US8822509B2, “Pain-relieving compositions and uses therefor” (priority 2006, dated 2014)
Entries after “also recorded” stand apart in the source; their conditions may differ.

What was measured:
[1] = tested on: tactile allodynia in 14-18 week STZ-diabetic rats; test: Naloxone or ODQ pre-treatment before test article in 14-18 week STZ-diabetic rats, von Frey PWT; format: in vivo, Wistar rats; settings: naloxone 1.25 μmol/kg s.c. 10 min before Compound 1 800 pmol/kg or morphine 7 μmol/kg s.c.
[2] = tested on: non-diabetic control rats; test: Tolerance development (7-day continuous s.c. infusion, 2-day washout) in non-diabetic control rats, von Frey PWT; format: in vivo; settings: second s.c. bolus of morphine after washout

CN1CC[C@]23c4c5ccc(O)c4O[C@H]2[C@@H](O)C=C[C@H]3[C@H]1C5 [morphine, reference compound] was tested, and the “effect of naloxone pre-treatment on anti-allodynia (ΔPWT AUC)” value [1] was “completely abolished the anti-allodynic effects; also recorded: attenuated by naloxone” and the “ΔPWT AUC” value [2] was 0.0 (±0.2) g·h.
